This experiment can be described thus: qHTS Assay for Lipid Storage Modulators in Drosophila S3 Cells.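 As to cell number change: cells counted by Cell Tracker Red CMTPX staining in the red channel.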 As to conditions: BODIPY lipid droplet fluorescence, 18-24 h; for cell number change: measured here: cell count max response, cells fed with added oleic acid. The essentials:
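Laser-scanning cytometry quantifies lipid droplet accumulation (500–530 nm total intensity; droplet/cell object ratio) in oleic acid-fed (400 uM added) Drosophila S3 cells treated with a concentration series. 20 uM Triacsin C defined 100% inhibition.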
On the technique in general: In qHTS, concentration-response curves come from the screen itself.

The mark [1] stands for this setting: measured here: lipid fluorescence (Fed channel) AC50, cells fed with added oleic acid.
Setting [2] is: measured here: cell number channel AC50, cells fed with added oleic acid.

For orientation: AC50 means the concentration giving half of the maximal activity seen. Read a low AC50 as greater potency.

The other results are listed elsewhere or left out. Shown are side measurements of this screen, not its main read-out; they come without a call. Most of these compounds were active or inconclusive in the main read-out, so they are no random draw. The note in brackets gives the kind of curve behind each potency; many fits are weak.

Regarding `CCCSc1ccc([C@@H]2[C@@H]3C(=O)N(C)C(=O)[C@@H]3[C@]3(C(=O)OC)CCCN23)cc1OC`, the cell number change is -16.9%. Further, under setting [1], the concentration at half-maximal activity (AC50) is 1160 nM [falling, full curve, poor fit].

With `COc1ccc(NC(=O)CCC(=O)Nc2nnc(CC(C)C)s2)cc1Cl`, the AC50 under setting [1] was 29100 nM [rising, single point].

With `O=C(Nc1ccc(Cl)c(Cl)c1)Nc1ccccn1`, the cell number change was 31%. Moreover, the AC50 under setting [2] was 18400 nM [rising, single point].

Regarding `Cc1ccccc1-n1nnnc1SCC(=O)Nc1ccc(S(=O)(=O)N2CCCC2)cc1`, the AC50 under setting [1] is 116 nM [falling, full curve, poor fit].

As for `CCOc1cc2c(C#N)c(N3CCCCC3)nc(N)c2c(N)n1`, the cell number change worked out at 2.09%. Also, the concentration at half-maximal activity (AC50) under setting [2] was 461 nM [rising, full curve]. Moreover, the concentration at half-maximal activity (AC50) under setting [1] was 5.17 nM [rising, full curve, poor fit].

With `Cc1sc2ncn(CC(=O)NCCCC(=O)N3CCC(C)CC3)c(=O)c2c1C`, the cell number change was 18.9%.

As to `Cc1ccc(N(C(C)C(=O)N2CCC(C)CC2)S(C)(=O)=O)cc1C` (stereo unspecified), the cell number change was -20.2%. In addition, the concentration at half-maximal activity (AC50) under setting [2] is 820 nM [falling, full curve, poor fit].

As to `O=C(CCNC(=O)c1ccccc1Cl)NCC1COc2ccccc2O1` (stereo unspecified), the cell number change is -7.23%.

Turning to `Cc1ccc(CNC(=O)CCNS(=O)(=O)c2cccc3nonc23)cc1`, the cell number change stood at 33.1%. The AC50 under setting [2] is 13000 nM [rising, single point].

For `Cc1ccc2c(c1)C1CN(C)CCC1N2S(=O)(=O)c1ccc(C(C)C)cc1` (stereo unspecified), the cell number change is 1.3%. For the same molecule, the half-maximal activity concentration (AC50) under setting [1] is 32600 nM [rising, single point].

For `Cc1cc(C)nc(NC(=O)c2ccc(Br)s2)n1`, the cell number change worked out at 11.4%.

Consider `CCOc1ccc(N(CC(=O)NC(C)(C)C)C(=O)CCC(=O)Nc2nccs2)cc1`, for which the cell number change stood at 0.787%.

For `O=C(NCc1ccco1)c1cc(-c2ccc3c(c2)OCO3)on1`, the cell number change was determined as 12.4%. Also, the AC50 under setting [1] is 2310 nM [rising, partial curve].

On to `COc1ccc(OC)c(C(=O)NC(CC(N)=O)c2ccc(NCC3CC3)c([N+](=O)[O-])c2)c1` (stereo unspecified), for which the cell number change was 14.1%. The AC50 under setting [1] is 6510 nM [rising, partial curve].

Consider `CC1CCN(c2oc(-c3ccccc3F)nc2C#N)CC1`, for which the AC50 under setting [2] is 1640 nM [rising, partial curve].

Regarding `O=C(NC1CCCC1)C(c1ccco1)N(Cc1ccccc1)C(=O)c1csnn1` (stereo unspecified), the cell number change was found to be 77.9%. Also, the AC50 under setting [2] was 29100 nM [rising, single point]. Under setting [1], the concentration at half-maximal activity (AC50) is 18400 nM [rising, single point].

Regarding `CCOC(=O)c1cc(-c2ccc(/C=N\n3cnnc3)o2)ccc1Cl`, under setting [2], the concentration at half-maximal activity (AC50) is 291 nM [rising, partial curve, poor fit].

Consider `O=C(Nc1nnc(SCc2ccc(Cl)cc2)s1)C1CCCO1` (stereo unspecified), for which the half-maximal activity concentration (AC50) under setting [1] is 116 nM [falling, full curve, poor fit].

Turning to `Cc1[nH]c(=O)c(C#N)c(C)c1CCC(=O)NCc1cccc(C(F)(F)F)c1`, the cell number change was -7.56%. In addition, the half-maximal activity concentration (AC50) under setting [1] was 164 nM [falling, partial curve, poor fit].

As to `COc1ccccc1NC(=O)COc1ccc(C(=O)OCC(=O)N2CCCC2=O)cc1OC`, the cell number change is -18.6%. For the same molecule, the concentration at half-maximal activity (AC50) under setting [1] is 259 nM [rising, partial curve, poor fit].

Turning to `CN(Cc1ccccc1F)C(=O)CCCNC(=O)c1ccc(Cl)cc1`, the cell number change is -41.1%.

As for `COc1ccc(Cn2ccnc2SCC(=O)NC2CCCCC2)cc1`, the cell number change was found to be 26.7%. In addition, the AC50 under setting [1] was 2910 nM [rising, single point].

On to `CC(=O)CC(=O)Nc1ccc(C(N)=O)cc1`, for which the cell number change was -0.603%. In addition, the half-maximal activity concentration (AC50) under setting [1] is 5.17 nM [falling, full curve, poor fit].

Turning to `CC(=O)c1sc(NC(=O)C=C(C)C)nc1C`, the AC50 under setting [1] was 580 nM [rising, single point].

For the molecule `Cc1ccc(C2=NOC(C)(c3nnc(-c4ccc(Cl)cc4)o3)C2)cc1` (stereo unspecified), the cell number change is 12.7%. For the same molecule, the concentration at half-maximal activity (AC50) under setting [1] was 11600 nM [rising, single point].

For the molecule `CC1CCCN(C(=O)C(=O)c2cn(CC(=O)N3CCCCCC3)c3ccccc23)C1` (stereo unspecified), the cell number change was -9.24%. Further, the AC50 under setting [1] was 11.6 nM [falling, full curve, poor fit].

For `Cc1ccc2[nH]c3c(c2c1)CN(C(=O)CN1CCN(c2ccccn2)CC1)CC3`, the cell number change was -22.1%.

Consider `COc1ccccc1-c1nc(SCC(=O)N2CCOCC2)n[nH]1`, for which the cell number change was determined as 4.5%.

Regarding `Cc1ccc(/C=C2/NC(=O)N(Cc3ccccc3)C2=O)s1`, the cell number change stood at 43.2%. Also, the AC50 under setting [2] is 20600 nM [rising, single point]. Further, the AC50 under setting [1] is 29100 nM [rising, single point].

With `Nc1cc(N)nc(SCC(=O)NCCC2=CCCCC2)n1`, the cell number change was -2.88%.

`O=C(CSc1nncs1)NC1CCCCCCC1`: the cell number change stood at 3.11%. The half-maximal activity concentration (AC50) under setting [1] was 29100 nM [rising, single point].

As to `CC(C)CCN1C(=O)c2ccc(C(=O)Nc3cc(C(=O)O)cc(C(=O)O)c3)cc2C1=O`, the cell number change was -24.5%.

Regarding `O=C(Nc1ccc2c(c1)CCC2)Nc1ccc(F)cc1F`, the cell number change came to 20.5%. In addition, the AC50 under setting [1] was 29100 nM [rising, single point].

In the case of `COc1cccc2cc(C(=O)N3CCc4ccccc4C3)c(=O)oc12`, the cell number change worked out at 71.1%. Further, the AC50 under setting [2] is 920 nM [rising, partial curve, poor fit].

For the molecule `COc1cc(NC(=S)N2CCCCC2C)cc(OC)c1OC` (stereo unspecified), the cell number change is 21.5%. The AC50 under setting [2] was 651 nM [falling, single point]. Also, under setting [1], the AC50 was 651 nM [falling, single point].

As to `O=C(NCc1ccccn1)c1ccc2ccccc2n1`, the cell number change was found to be 3.53%. In addition, the half-maximal activity concentration (AC50) under setting [1] is 10300 nM [rising, partial curve].

As for `Cc1ccc(C(=O)N2CCN(c3ccc(NC(=O)c4cccs4)cc3)CC2)cc1`, the cell number change is -47.3%. Moreover, the half-maximal activity concentration (AC50) under setting [2] was 16400 nM [falling, single point]. Moreover, the AC50 under setting [1] is 13000 nM [falling, partial curve, poor fit].

As to `CCCn1c(SCC(=O)NCCc2ccc(Cl)cc2Cl)n[nH]c1=O`, under setting [1], the half-maximal activity concentration (AC50) is 259 nM [falling, full curve, poor fit].

As to `COc1cc(Cl)c(C)cc1NC(=O)CSC`, the cell number change was -1.7%. Under setting [2], the AC50 was 1160 nM [falling, partial curve, poor fit]. Further, the AC50 under setting [1] was 23100 nM [rising, single point].

`CC(C)n1cnnc1SCC(=O)Nc1ccc(N2CCCCC2)cc1`: the cell number change was determined as 43.6%. For the same molecule, the AC50 under setting [2] is 1840 nM [rising, partial curve, poor fit]. Besides, the AC50 under setting [1] is 11600 nM [rising, partial curve, poor fit].

(Values after PubChem BioAssay AID2685 (National Center for Advancing Translational Sciences (NCATS), 2010).)
